# Test results from the supplement of paper PMC8728848.
# This is one part of the list.
# B1: Mnn9-2N3 (Aspergillus fumigatus) (protein)
# chain: MAVARRMRRTNPITLLLAAILAIGFFIFVLSPSTTSASPVKAGSASSSSTSQQRREDNAAENPLSPPTKPFFKSQPVRHDGQQAPPPVVQYNLNQLSSTSTSAANGERILILTPMARFVPEYWDNVVKLTYPHELISIGFIIPKNKEGNAALAALEAAIAKTQSGPIDKRFASISILRQDFEPPLQSQDEKERHKISNQKARRESMSRARNSLLFTTLGPATAWVLWLDADIVETPPTLIQDLTAHDHPVLVPNCYQRYYNSEKKKMDVRPYDYNSWIDSSTAQSMAAEMGPDEILLEGYAEMPTYRTLMAHLADTANPNPKKVIELDGVGGTALMVKAEVHRDGAMFPAFPFYHLVETEGFAKMAKRLGYSVYGLPDYFVSRNFFFFFFFFFFG
# Columns and labels:
# Test in all cases: glycan array binding signal (z-score within array); higher = stronger binding
# Conditions in all cases: glycan notation: IUPAC condensed, linker removed
# [1] = target: Neu5Ac(a2-3)GalNAc
# Procedure, shortened: (§1)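 Glycan array data were curated from 3228 arrays in the Consortium for Functional Glycomics database and kept only where the protein sequence was available. Glycan names were converted to IUPAC-condensed notation, and columns mapping to the same glycan were averaged. The binding signal is a within-array Z-score, averaged across arrays of the same protein sequence at different concentrations or buffers and across linkers. Negative Z-scores can be read as non-binding.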
# [2] = target: Neu5Ac(a2-3)GalNAc(b1-4)GlcNAc
# Procedure, shortened: as §1
# [3] = target: Neu5Ac(a2-3)[GalNAc(b1-4)]Gal(b1-4)Glc
# Procedure, shortened: as §1
# [4] = target: Neu5Ac(a2-3)[GalNAc(b1-4)]Gal(b1-4)GlcNAc
# Procedure, shortened: as §1
# [5] = target: Neu5Ac(a2-3)[GalNAc(b1-4)]Gal(b1-4)GlcNAc(b1-3)GalNAc
# Procedure, shortened: as §1
# [6] = target: Neu5Ac(a2-3)[Neu5Ac(a2-6)]GalNAc
# Procedure, shortened: as §1
# [7] = target: Neu5Ac(a2-6)Gal
# Procedure, shortened: as §1
# [8] = target: Neu5Ac(a2-6)Gal(b1-3)GlcNAc(b1-3)[Gal(b1-4)GlcNAc(b1-6)]Gal(b1-4)Glc
# Procedure, shortened: as §1
# [9] = target: Neu5Ac(a2-6)Gal(b1-4)Glc
# Procedure, shortened: as §1
# [10] = target: Neu5Ac(a2-6)Gal(b1-4)GlcNAc
# Procedure, shortened: as §1
# [11] = target: Neu5Ac(a2-6)Gal(b1-4)GlcNAc(b1-2)Man
# Procedure, shortened: as §1
# [12] = target: Neu5Ac(a2-6)Gal(b1-4)GlcNAc(b1-2)Man(a1-3)Man(b1-4)GlcNAc(b1-4)GlcNAc
# Procedure, shortened: as §1
# [13] = target: Neu5Ac(a2-6)Gal(b1-4)GlcNAc(b1-2)Man(a1-3)[Gal(b1-4)GlcNAc(b1-2)Man(a1-6)]Man(b1-4)GlcNAc(b1-4)GlcNAc
# Procedure, shortened: as §1
# [14] = target: Neu5Ac(a2-6)Gal(b1-4)GlcNAc(b1-2)Man(a1-3)[GlcNAc(b1-2)Man(a1-6)]Man(b1-4)GlcNAc(b1-4)GlcNAc
# Procedure, shortened: as §1
# [15] = target: Neu5Ac(a2-6)Gal(b1-4)GlcNAc(b1-2)Man(a1-3)[GlcNAc(b1-4)][Neu5Ac(a2-6)Gal(b1-4)GlcNAc(b1-2)Man(a1-6)]Man(b1-4)GlcNAc(b1-4)GlcNAc
# Procedure, shortened: as §1
# [16] = target: Neu5Ac(a2-6)Gal(b1-4)GlcNAc(b1-2)Man(a1-3)[Man(a1-6)]Man(b1-4)GlcNAc(b1-4)GlcNAc
# Procedure, shortened: as §1
# [17] = target: Neu5Ac(a2-6)Gal(b1-4)GlcNAc(b1-2)Man(a1-3)[Neu5Ac(a2-3)Gal(b1-4)GlcNAc(b1-2)Man(a1-6)]Man(b1-4)GlcNAc(b1-4)GlcNAc
# Procedure, shortened: as §1
# [18] = target: Neu5Ac(a2-6)Gal(b1-4)GlcNAc(b1-2)Man(a1-3)[Neu5Ac(a2-6)Gal(b1-4)GlcNAc(b1-2)Man(a1-6)]Man(b1-4)GlcNAc(b1-4)GlcNAc
# Procedure, shortened: as §1
# [19] = target: Neu5Ac(a2-6)Gal(b1-4)GlcNAc(b1-2)Man(a1-3)[Neu5Ac(a2-6)Gal(b1-4)GlcNAc(b1-2)Man(a1-6)]Man(b1-4)GlcNAc(b1-4)[Fuc(a1-6)]GlcNAc
# Procedure, shortened: as §1
# [20] = target: Neu5Ac(a2-6)Gal(b1-4)GlcNAc(b1-2)Man(a1-6)Man(b1-4)GlcNAc(b1-4)GlcNAc
# Procedure, shortened: as §1
# [21] = target: Neu5Ac(a2-6)Gal(b1-4)GlcNAc(b1-2)Man(a1-6)[Gal(b1-4)GlcNAc(b1-2)Man(a1-3)]Man(b1-4)GlcNAc(b1-4)GlcNAc
# Procedure, shortened: as §1
# [22] = target: Neu5Ac(a2-6)Gal(b1-4)GlcNAc(b1-2)Man(a1-6)[GlcNAc(b1-2)Man(a1-3)]Man(b1-4)GlcNAc(b1-4)GlcNAc
# Procedure, shortened: as §1
# [23] = target: Neu5Ac(a2-6)Gal(b1-4)GlcNAc(b1-2)Man(a1-6)[Man(a1-3)]Man(b1-4)GlcNAc(b1-4)GlcNAc
# Procedure, shortened: as §1
# [24] = target: Neu5Ac(a2-6)Gal(b1-4)GlcNAc(b1-2)[Neu5Ac(a2-6)Gal(b1-4)GlcNAc(b1-4)]Man(a1-3)[GlcNAc(b1-4)][Neu5Ac(a2-6)Gal(b1-4)GlcNAc(b1-2)[Neu5Ac(a2-6)Gal(b1-4)GlcNAc(b1-6)]Man(a1-6)]Man(b1-4)GlcNAc(b1-4)GlcNAc
# Procedure, shortened: as §1
# [25] = target: Neu5Ac(a2-6)Gal(b1-4)GlcNAc(b1-2)[Neu5Ac(a2-6)Gal(b1-4)GlcNAc(b1-4)]Man(a1-3)[GlcNAc(b1-4)][Neu5Ac(a2-6)Gal(b1-4)GlcNAc(b1-4)Man(a1-6)]Man(b1-4)GlcNAc(b1-4)GlcNAc
# Procedure, shortened: as §1
# [26] = target: Neu5Ac(a2-6)Gal(b1-4)GlcNAc(b1-2)[Neu5Ac(a2-6)Gal(b1-4)GlcNAc(b1-6)]Man(a1-6)[Neu5Ac(a2-6)Gal(b1-4)GlcNAc(b1-2)Man(a1-3)][GlcNAc(b1-4)]Man(b1-4)GlcNAc(b1-4)GlcNAc
# Procedure, shortened: as §1
# [27] = target: Neu5Ac(a2-6)Gal(b1-4)GlcNAc(b1-3)Gal(b1-3)GlcNAc
# Procedure, shortened: as §1
# [28] = target: Neu5Ac(a2-6)Gal(b1-4)GlcNAc(b1-3)Gal(b1-4)GlcNAc
# Procedure, shortened: as §1
# [29] = target: Neu5Ac(a2-6)Gal(b1-4)GlcNAc(b1-3)Gal(b1-4)GlcNAc(b1-2)Man(a1-3)[Neu5Ac(a2-6)Gal(b1-4)GlcNAc(b1-3)Gal(b1-4)GlcNAc(b1-2)Man(a1-6)]GalNAc
# Procedure, shortened: as §1
# [30] = target: Neu5Ac(a2-6)Gal(b1-4)GlcNAc(b1-3)Gal(b1-4)GlcNAc(b1-3)Gal(b1-4)GlcNAc
# Procedure, shortened: as §1
# [31] = target: Neu5Ac(a2-6)Gal(b1-4)GlcNAc(b1-3)Gal(b1-4)GlcNAc(b1-3)Gal(b1-4)GlcNAc(b1-2)Man(a1-3)[Neu5Ac(a2-6)Gal(b1-4)GlcNAc(b1-3)Gal(b1-4)GlcNAc(b1-3)Gal(b1-4)GlcNAc(b1-2)Man(a1-6)]GalNAc
# Procedure, shortened: as §1
# [32] = target: Neu5Ac(a2-6)Gal(b1-4)GlcNAc(b1-3)Gal(b1-4)GlcNAc(b1-3)GalNAc
# Procedure, shortened: as §1
# [33] = target: Neu5Ac(a2-6)Gal(b1-4)GlcNAc(b1-3)Gal(b1-4)GlcNAc(b1-3)[Neu5Ac(a2-6)Gal(b1-4)GlcNAc(b1-3)Gal(b1-4)GlcNAc(b1-6)]GalNAc
# Procedure, shortened: as §1
# [34] = target: Neu5Ac(a2-6)Gal(b1-4)GlcNAc(b1-3)Gal(b1-4)GlcNAc(b1-6)[Gal(b1-3)]GalNAc
# Procedure, shortened: as §1
# [35] = target: Neu5Ac(a2-6)Gal(b1-4)GlcNAc(b1-3)Gal(b1-4)[Fuc(a1-3)]GlcNAc(b1-3)Gal(b1-4)[Fuc(a1-3)]GlcNAc
# Procedure, shortened: as §1
# [36] = target: Neu5Ac(a2-6)Gal(b1-4)GlcNAc(b1-3)GalNAc
# Procedure, shortened: as §1
# [37] = target: Neu5Ac(a2-6)Gal(b1-4)GlcNAc(b1-3)[Neu5Ac(a2-6)Gal(b1-4)GlcNAc(b1-6)]GalNAc
# Procedure, shortened: as §1
binder,measurement,setting,value
B1,glycan array binding signal (z-score),[1],0.03
same,glycan array binding signal (z-score),[2],-0.309
same,glycan array binding signal (z-score),[3],0.418
same,glycan array binding signal (z-score),[4],0.963
same,glycan array binding signal (z-score),[5],-2.19
same,glycan array binding signal (z-score),[6],-0.105
same,glycan array binding signal (z-score),[7],0.373
same,glycan array binding signal (z-score),[8],-0.111
same,glycan array binding signal (z-score),[9],-0.019
same,glycan array binding signal (z-score),[10],0.028
same,glycan array binding signal (z-score),[11],0.302
same,glycan array binding signal (z-score),[12],-0.378
same,glycan array binding signal (z-score),[13],-1.64
same,glycan array binding signal (z-score),[14],-1.47
same,glycan array binding signal (z-score),[15],0.123
same,glycan array binding signal (z-score),[16],-1.47
same,glycan array binding signal (z-score),[17],0.486
same,glycan array binding signal (z-score),[18],0.238
same,glycan array binding signal (z-score),[19],0.808
same,glycan array binding signal (z-score),[20],-1.03
same,glycan array binding signal (z-score),[21],-0.688
same,glycan array binding signal (z-score),[22],-0.95
same,glycan array binding signal (z-score),[23],0.227
same,glycan array binding signal (z-score),[24],0.205
same,glycan array binding signal (z-score),[25],0.302
same,glycan array binding signal (z-score),[26],0.053
same,glycan array binding signal (z-score),[27],-0.158
same,glycan array binding signal (z-score),[28],0.133
same,glycan array binding signal (z-score),[29],-0.77
same,glycan array binding signal (z-score),[30],0.197
same,glycan array binding signal (z-score),[31],-1.44
same,glycan array binding signal (z-score),[32],-0.279
same,glycan array binding signal (z-score),[33],-1.83
same,glycan array binding signal (z-score),[34],-1.55
same,glycan array binding signal (z-score),[35],-0.008
same,glycan array binding signal (z-score),[36],0.093
same,glycan array binding signal (z-score),[37],-1.4

# Random excerpt: two records from the list, in no set order.
binder,measurement,setting,value
B1,glycan array binding signal (z-score),[12],-0.378
same,glycan array binding signal (z-score),[10],0.028
